From paper PMC10009235
These are yes or no findings as the source states them, for the method shown. For part of these data: In cells and extracts the contact can be indirect. Some results given as binding are weak or reduced against the parent protein; the word gives no strength. For part of these data: Where a sequence is shown, tags or fusion partners need not be part of it.

Key:
[1] = target: T1, ETV2 (Ets variant 2), yeast two-hybrid fusion (UniProt P41163); assay: two-hybrid; yeast two hybrid screen for ETV2 interacting partners; no methods given
T1 sequence: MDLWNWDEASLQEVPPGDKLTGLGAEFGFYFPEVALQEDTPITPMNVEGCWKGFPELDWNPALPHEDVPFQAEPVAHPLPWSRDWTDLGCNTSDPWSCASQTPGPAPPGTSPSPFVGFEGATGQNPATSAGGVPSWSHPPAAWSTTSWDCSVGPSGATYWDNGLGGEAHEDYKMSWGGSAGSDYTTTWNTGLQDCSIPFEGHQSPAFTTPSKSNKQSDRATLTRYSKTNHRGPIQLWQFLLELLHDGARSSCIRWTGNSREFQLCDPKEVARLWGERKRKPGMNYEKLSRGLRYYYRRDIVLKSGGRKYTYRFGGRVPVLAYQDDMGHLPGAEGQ

[2] = target: T2, endogenous ETV2 (mouse (endogenous in mouse ES cell-derived embryoid bodies)) (UniProt P41163); assay: co-IP; D4 EB lysates; IP with ETV2 antibody (abcam ab181847), blot for VEZF1
T2 sequence: T1 sequence

[3] = target: T3, HA-tagged ETV2 (UniProt P41163); assay: co-IP; lysates of day 4 EBs from dox-inducible HA-Etv2 mouse ES cells (doxycycline 0.5 ug/mL days 2-3); IP with mouse anti-HA (12CA5), blot anti-VEZF1; lysis buffer 20 mM HEPES-KOH pH 7.9, 150 mM NaCl, 0.5% NP40, 1 mM EDTA, 10% glycerol
T3 sequence: T1 sequence

[4] = target: T4, GST-tagged N-terminal ETV2 (1-226) (UniProt P41163); assay: pull-down; GST fusion proteins on Glutathione Sepharose 4B beads, blocked with BSA (2 mg/mL), incubated with 6 uL in vitro translated VEZF1 for 2 h at 4 C; washes with cold PBS, elution with 10 mM glutathione pH 8.0; blot anti-Flag; only the target purified
T4 sequence: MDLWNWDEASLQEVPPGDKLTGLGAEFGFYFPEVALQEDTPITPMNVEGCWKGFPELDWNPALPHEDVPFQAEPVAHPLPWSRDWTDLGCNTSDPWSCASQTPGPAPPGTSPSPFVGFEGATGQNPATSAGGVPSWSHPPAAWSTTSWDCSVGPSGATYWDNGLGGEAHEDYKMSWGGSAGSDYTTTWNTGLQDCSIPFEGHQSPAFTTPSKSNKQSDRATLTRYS

[5] = target: T5, GST-tagged full length ETV2 (1-335) (UniProt P41163); assay: as above
T5 sequence: T1 sequence

[6] = target: T6, GST-tagged C-terminal ETV2 (227-335) (UniProt P41163); assay: as above
T6 sequence: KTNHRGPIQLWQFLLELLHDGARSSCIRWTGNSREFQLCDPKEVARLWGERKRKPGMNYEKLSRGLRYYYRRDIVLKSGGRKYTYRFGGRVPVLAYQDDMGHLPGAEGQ

B1: VEZF1 (vascular endothelial zinc finger 1), yeast two-hybrid hit (protein, UniProt Q5SXC4 1-518)
chain: MEANWTAFLFQAHEASHHQQQAAQNSLLPLLSSAVEPPDQKPLLPIPITQKPQAAPETLKDAIGIKKEKPKTSFVCTYCSKAFRDSYHLRRHQSCHTGIKLVSRAKKTPTTVVPLISTIAGDSSRTSLVSTIAGILSTVTTSSSGTNPSSSASTTSMPVPQSVKKPSKPVKKNHACEMCGKAFRDVYHLNRHKLSHSDEKPFECPICNQRFKRKDRMTYHVRSHEGGITKPYTCSVCGKGFSRPDHLSCHVKHVHSTERPFKCQTCTAAFATKDRLRTHMVRHEGKVSCNICGKLLSAAYITSHLKTHGQSQSINCNTCKQGISKTCMSEETSNQKQQQQQQQQQQQQQQQHVTSWPGKQVETLRLWEEAVKARKKEAANLCQTSTAATTPVTLTTPFNITSSVSSGTMSNPVTVAAAMSMRSPVNVSSAVNITSPMNIGHPVTITSPLAMTSPLTLTTPVNLPTPVTAPVNIAHPVTITSPMNLPTPMTLAAPLNIAMRPVESMPFLPQALPTSPPW
Question: For B1, which binding [1] is on record?
Answer: binds

B2: endogenous VEZF1 (protein, UniProt Q5SXC4 1-518)
chain: B1 chain
Question: What does the source list for B2?
Answer: binding [2]: binds; binding [3]: binds

B3: in vitro translated myc-flag-tagged VEZF1 (protein, UniProt Q5SXC4 1-518)
chain: B1 chain
Question: Which results are given for B3?
Answer: binding [4]: binds; binding [5]: binds; binding [6]: binds
